Some entries share one result that the patent states for a list of compounds.
Tested on: IMQ-induced psoriasis model
Experiment: IMQ-induced psoriasis model, skin thickening and ear thickening
Format: in vivo, BALB/c mice
Settings: BID, gavage, FIG. 2
Description: Male BALB/c mice aged 6-8 weeks were randomly grouped into 15 groups or 6 groups after 1 week of adaptive feeding: control group, imiquimod model group (i.e., Model group), clobetasol propionate group (i.e., CLO group), the compounds of the present invention: TM-57 ICL-004192 (3 mg/kg, 10 mg/kg, 30 mg/kg), TM-109ICL-004240 (3 mg/kg, 10 mg/kg, 30 mg/kg, 60 mg/kg), TM-101ICL-004250 (3 mg/kg, 10 mg/kg, 30 mg/kg, 60 mg/kg), with 5 mice per group, and the Control group, the imiquimod model group (i.e., the Model group), and the clobetasol propionate group (i.e., the CLO group). On day 0, each of the mice was unhaired on the back using a hair removal cream, with a hair removal area of 2.5 cm×1.5 cm. On the first day, IMQ cream was used for modeling, and a corresponding drug was administered by gavage for treatment. […]
Referring to the Psoriasis Area and Severity Index (PASI) scoring criteria, the psoriasis, erythema, and thickness of skin lesions on the back were scored from 0 to 4 every morning from day 1 of modeling, with the scoring criteria as shown in Table 1. […] The ear thickness of the left ear of the mouse was measured using a digital vernier caliper three times every morning from day 1, to obtain a mean value.

| Compound | IMQ-induced psoriatic ear thickening, P compared with the Model group (10 mg/kg) | IMQ-induced psoriatic ear thickening, P compared with the Model group (60 mg/kg) |
| --- | --- | --- |
| Cc1nn(C2CCC(=O)NC2=O)c2cccc(N3CC4CN(C[C@H]5CC[C@H](n6cc7cc(NC(=O)c8cnn9cccnc89)c(N8CCOCC8)cc7n6)CC5)CC4C3)c12 (some centres unmarked) [TM-57] | < 0.05 |  |
| Cc1nn(C2CCC(=O)NC2=O)c2cccc(N3CCC4(CC3)CN(C[C@H]3CC[C@H](n5cc6cc(NC(=O)c7cnn8cccnc78)c(N(C)C)cc6n5)CC3)C4)c12 (some centres unmarked) [TM-101] |  | < 0.05 |
